Taken from: PubChem BioAssay AID743458 (Peter MacCallum Cancer Centre, 2014)
The deposit covers about 1,800 reagents; below is an unselected part. In the full data, 732 (41%) got an active call. 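Calls are per siRNA reagent; a gene was deemed confirmed only if most of its four siRNAs scored.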 A number with no mark means an inactive call. The numbers tell different reagents against one gene apart.

Assay: 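Find knock-downs that make vorinostat-resistant colon cancer cells sensitive again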 (follow-up of hits)
System: human HCT116-VR colon cancer cells made resistant to vorinostat
Reagent: single siRNA or pool against human genes, 25 nM per single siRNA
Duration: about 72 h after transfection, including 24 h of drug
Treatment: vorinostat, 2.5 µM final, for 24 h
Detection: 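Cell viability by fluorescence and apoptosis by caspase 3/7 luminescence under vorinostat, background-corrected, averaged across two plate copies and given as fold change versus mock transfection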
Scale: viability relative to mock: higher = more living cells than mock; caspase activity relative to mock: higher = more apoptosis than mock
Active means: 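An siRNA counts as active if classed as reduced viability or as caspase activation, otherwise inactive; a hit class needed wells that remained healthy in the absence of drug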

RNF216 #1 → viability relative to mock = 0.99; caspase activity relative to mock = 0.96; viability hit class = no change; caspase hit class = no change
RNF216 #2 → viability relative to mock = 0.82; caspase activity relative to mock = 1.43; viability hit class = no change; caspase hit class = no change
RNF216 #3 → viability relative to mock = 1.06 (active); caspase activity relative to mock = 3.84; viability hit class = no change; caspase hit class = caspase activation
RNF216 #4 → viability relative to mock = 0.92; caspase activity relative to mock = 1; viability hit class = no change; caspase hit class = no change
FERMT2 #1 → viability relative to mock = 0.43 (active); caspase activity relative to mock = 5.58; viability hit class = reduced viability; caspase hit class = caspase activation
FERMT2 #2 → viability relative to mock = 0.9; caspase activity relative to mock = 1.56; viability hit class = no change; caspase hit class = no change
FERMT2 #3 → viability relative to mock = 0.64; caspase activity relative to mock = 1.2; viability hit class = no change; caspase hit class = no change
FERMT2 #4 → viability relative to mock = 0.8; caspase activity relative to mock = 0.96; viability hit class = no change; caspase hit class = no change

Not a retest: an excerpt of the list.
RNF216 #3 → viability relative to mock = 1.06 (active); caspase activity relative to mock = 3.84; viability hit class = no change; caspase hit class = caspase activation
RNF216 #4 → viability relative to mock = 0.92; caspase activity relative to mock = 1; viability hit class = no change; caspase hit class = no change

The list goes on.
PRKAA2 #1 → viability relative to mock = 1.1; caspase activity relative to mock = 1.29; viability hit class = no change; caspase hit class = no change
PRKAA2 #2 → viability relative to mock = 0.9; caspase activity relative to mock = 1.4; viability hit class = no change; caspase hit class = no change
PRKAA2 #3 → viability relative to mock = 0.46 (active); caspase activity relative to mock = 4.14; viability hit class = reduced viability; caspase hit class = caspase activation
PRKAA2 #4 → viability relative to mock = 1.07; caspase activity relative to mock = 1.7; viability hit class = no change; caspase hit class = no change
AKAP10 #1 → viability relative to mock = 0.73; caspase activity relative to mock = 1.24; viability hit class = no change; caspase hit class = no change
AKAP10 #2 → viability relative to mock = 0.92; caspase activity relative to mock = 1.34; viability hit class = no change; caspase hit class = no change
AKAP10 #3 → viability relative to mock = 0.85; caspase activity relative to mock = 1.4; viability hit class = no change; caspase hit class = no change
AKAP10 #4 → viability relative to mock = 0.12 (active); caspase activity relative to mock = 2.24; viability hit class = reduced viability; caspase hit class = no change
